Reference: paper PMC4565980
Like-named read-outs stand apart in the source and are kept apart here. Results are given in words; binding and its absence hold for the method and conditions named. Binding seen in cells or lysates may run through a third protein. A yes stands for co-enrichment or nearness to the bait. Other partners may have been found.

By UniProt entry, the sequences of proteins in these tests, tags left out. Where a name states a change or a piece, a line headed by the entry shows the natural chain unless it says otherwise. Chains listed by the source or under a name are the forms on record and can include a tag or linker.
myc-BirA*-progerin (expressed in TERT+ human fibroblasts) (P02545, form named): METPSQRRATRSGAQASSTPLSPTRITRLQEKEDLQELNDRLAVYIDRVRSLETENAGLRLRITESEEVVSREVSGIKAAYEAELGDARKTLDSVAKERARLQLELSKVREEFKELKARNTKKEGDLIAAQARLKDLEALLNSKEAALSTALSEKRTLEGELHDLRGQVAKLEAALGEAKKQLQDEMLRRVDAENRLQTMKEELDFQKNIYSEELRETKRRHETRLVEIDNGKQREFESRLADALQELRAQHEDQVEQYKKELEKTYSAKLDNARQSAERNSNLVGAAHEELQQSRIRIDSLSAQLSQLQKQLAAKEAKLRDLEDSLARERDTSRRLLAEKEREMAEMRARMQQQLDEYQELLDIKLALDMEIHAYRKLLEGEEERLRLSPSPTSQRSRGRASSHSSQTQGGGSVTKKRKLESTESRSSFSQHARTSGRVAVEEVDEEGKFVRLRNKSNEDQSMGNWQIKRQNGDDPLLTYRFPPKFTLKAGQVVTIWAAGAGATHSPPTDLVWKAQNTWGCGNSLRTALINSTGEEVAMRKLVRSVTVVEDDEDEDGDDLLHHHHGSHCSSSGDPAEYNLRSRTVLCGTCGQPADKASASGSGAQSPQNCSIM
UniProt P12270: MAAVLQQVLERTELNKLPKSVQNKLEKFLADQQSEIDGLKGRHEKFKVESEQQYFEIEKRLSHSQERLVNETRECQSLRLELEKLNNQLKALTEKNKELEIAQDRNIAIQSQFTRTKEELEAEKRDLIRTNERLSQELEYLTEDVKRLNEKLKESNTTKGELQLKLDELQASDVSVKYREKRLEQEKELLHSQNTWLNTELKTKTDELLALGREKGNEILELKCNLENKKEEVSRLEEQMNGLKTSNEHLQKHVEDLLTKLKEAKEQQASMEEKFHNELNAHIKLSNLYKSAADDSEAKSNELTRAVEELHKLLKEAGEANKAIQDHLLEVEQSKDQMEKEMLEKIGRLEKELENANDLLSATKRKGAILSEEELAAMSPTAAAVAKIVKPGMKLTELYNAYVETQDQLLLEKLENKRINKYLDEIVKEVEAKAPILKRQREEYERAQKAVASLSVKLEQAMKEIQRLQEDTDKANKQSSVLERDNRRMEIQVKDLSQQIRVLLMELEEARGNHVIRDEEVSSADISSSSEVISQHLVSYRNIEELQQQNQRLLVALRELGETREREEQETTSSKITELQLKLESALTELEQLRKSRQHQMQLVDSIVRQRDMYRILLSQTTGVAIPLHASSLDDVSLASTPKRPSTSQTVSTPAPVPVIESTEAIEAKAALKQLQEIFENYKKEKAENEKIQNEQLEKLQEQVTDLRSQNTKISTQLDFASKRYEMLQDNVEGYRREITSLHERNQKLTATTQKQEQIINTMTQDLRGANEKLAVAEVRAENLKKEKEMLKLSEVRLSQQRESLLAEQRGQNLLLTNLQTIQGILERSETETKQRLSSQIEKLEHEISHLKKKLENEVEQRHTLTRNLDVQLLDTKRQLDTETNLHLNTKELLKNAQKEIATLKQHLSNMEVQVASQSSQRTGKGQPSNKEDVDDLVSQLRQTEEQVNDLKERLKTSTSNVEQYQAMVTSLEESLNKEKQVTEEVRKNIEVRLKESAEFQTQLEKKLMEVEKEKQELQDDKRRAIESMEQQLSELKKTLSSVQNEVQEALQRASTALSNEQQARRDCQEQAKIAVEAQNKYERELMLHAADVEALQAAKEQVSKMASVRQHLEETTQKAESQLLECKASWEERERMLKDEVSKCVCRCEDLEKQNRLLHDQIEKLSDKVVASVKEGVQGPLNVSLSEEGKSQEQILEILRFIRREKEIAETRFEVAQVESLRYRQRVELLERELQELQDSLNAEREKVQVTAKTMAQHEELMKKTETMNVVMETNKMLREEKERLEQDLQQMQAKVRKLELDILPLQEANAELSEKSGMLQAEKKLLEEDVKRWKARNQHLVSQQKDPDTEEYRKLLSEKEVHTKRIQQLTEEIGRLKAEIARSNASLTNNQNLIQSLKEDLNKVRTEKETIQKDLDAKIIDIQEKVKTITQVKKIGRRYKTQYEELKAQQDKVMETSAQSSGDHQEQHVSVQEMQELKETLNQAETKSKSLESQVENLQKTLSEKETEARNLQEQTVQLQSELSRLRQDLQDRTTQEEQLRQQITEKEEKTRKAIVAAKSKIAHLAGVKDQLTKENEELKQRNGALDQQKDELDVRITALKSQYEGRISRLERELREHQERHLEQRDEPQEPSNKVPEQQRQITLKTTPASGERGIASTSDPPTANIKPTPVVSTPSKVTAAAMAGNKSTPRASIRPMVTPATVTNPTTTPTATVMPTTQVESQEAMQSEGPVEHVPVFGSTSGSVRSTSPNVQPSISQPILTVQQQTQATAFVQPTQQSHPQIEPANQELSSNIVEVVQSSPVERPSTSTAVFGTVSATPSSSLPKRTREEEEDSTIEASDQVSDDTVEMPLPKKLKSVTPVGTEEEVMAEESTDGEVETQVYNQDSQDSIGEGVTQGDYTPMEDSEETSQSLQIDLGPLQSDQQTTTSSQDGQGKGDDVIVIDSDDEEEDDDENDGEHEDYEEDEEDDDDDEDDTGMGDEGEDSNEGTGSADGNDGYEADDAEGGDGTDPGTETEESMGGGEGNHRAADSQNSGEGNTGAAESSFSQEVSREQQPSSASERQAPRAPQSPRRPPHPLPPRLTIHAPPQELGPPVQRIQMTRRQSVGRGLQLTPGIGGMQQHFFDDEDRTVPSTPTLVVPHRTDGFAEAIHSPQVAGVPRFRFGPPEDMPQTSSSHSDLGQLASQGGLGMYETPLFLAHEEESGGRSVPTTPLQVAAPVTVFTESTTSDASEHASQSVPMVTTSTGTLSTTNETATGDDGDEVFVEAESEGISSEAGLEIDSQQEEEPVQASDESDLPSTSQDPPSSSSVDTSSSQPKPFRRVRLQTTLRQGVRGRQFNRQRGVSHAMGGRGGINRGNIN

Tests used:
[1] = biological target: myc-BirA*-progerin (expressed in TERT+ human fibroblasts) (human) (UniProt P02545); test: proximity labelling; BioID: myc-BirA* fusions doxycycline-induced in TERT+ human fibroblasts, 50 µM biotin for 24 hr, lysis under denaturing conditions, biotinylated proteins purified on streptavidin-coupled magnetic beads, SDS-PAGE, mass spectrometry (emPAI) and western blot
[2] = biological target: myc-BirA*-lamin A (expressed in TERT+ human fibroblasts) (human) (UniProt P02545); test: as above
[3] = biological target: myc-BirA*-progerin (expressed in TERT+ human fibroblasts) (human) (UniProt P02545); test: as above; remark: listed apart in the source
[4] = biological target: myc-BirA*-lamin A (expressed in TERT+ human fibroblasts) (human) (UniProt P02545); test: as above; remark: listed apart in the source
[5] = biological target: myc-BirA*-lamin A (expressed in mouse ESC) (human) (UniProt P02545); test: proximity labelling; BioID: myc-BirA* fusions doxycycline-induced in pluripotent mouse ESC, mass spectrometry of pull-down fractions (emPAI)
[6] = biological target: myc-BirA*-progerin (expressed in mouse ESC) (human) (UniProt P02545); test: as above

Molecule	binding [3]	binding [4]	further results
nuclear pore complex protein TPR (endogenous, human fibroblasts) (from UniProt P12270 1-2363)	–	–	binding [1]: binds; binding [2]: binds
LAP2α (endogenous, human fibroblasts) (protein, UniProt P42166 1-694) MPEFLEDPSVLTKDKLKSELVANNVTLPAGEQRKDVYVQLYLQHLTARNRPPLPAGTNSKGPPDFSSDEEREPTPVLGSGAAAAGRSRAAVGRKATKKTDKPRQEDKDDLDVTELTNEDLLDQLVKYGVNPGPIVGTTRKLYEKKLLKLREQGTESRSSTPLPTISSSAENTRQNGSNDSDRYSDNEEGKKKEHKKVKSTRDIVPFSELGTTPSGGGFFQGISFPEISTRPPLGSTELQAAKKVHTSKGDLPREPLVATNLPGRGQLQKLASERNLFISCKSSHDRCLEKSSSSSSQPEHSAMLVSTAASPSLIKETTTGYYKDIVENICGREKSGIQPLCPERSHISDQSPLSSKRKALEESESSQLISPPLAQAIRDYVNSLLVQGGVGSLPGTSNSMPPLDVENIQKRIDQSKFQETEFLSPPRKVPRLSEKSVEERDSGSFVAFQNIPGSELMSSFAKTVVSHSLTTLGLEVAKQSQHDKIDASELSFPFHESILKVIEEEWQQVDRQLPSLACKYPVSSREATQILSVPKVDDEILGFISEATPLGGIQAASTESCNQQLDLALCRAYEAAASALQIATHTAFVAKAMQADISQAAQILSSDPSRTHQALGILSKTYDAASYICEAAFDEVKMAAHTMGNATVGRRYLWLKDCKINLASKNKLASTPFKGGTLFGGEVCKVIKKRGNKH	binds	binds	–
LAP2β (endogenous, human fibroblasts) (protein, UniProt P42167 1-454) MPEFLEDPSVLTKDKLKSELVANNVTLPAGEQRKDVYVQLYLQHLTARNRPPLPAGTNSKGPPDFSSDEEREPTPVLGSGAAAAGRSRAAVGRKATKKTDKPRQEDKDDLDVTELTNEDLLDQLVKYGVNPGPIVGTTRKLYEKKLLKLREQGTESRSSTPLPTISSSAENTRQNGSNDSDRYSDNEEDSKIELKLEKREPLKGRAKTPVTLKQRRVEHNQSYSQAGITETEWTSGSSKGGPLQALTRESTRGSRRTPRKRVETSEHFRIDGPVISESTPIAETIMASSNESLVVNRVTGNFKHASPILPITEFSDIPRRAPKKPLTRAEVGEKTEERRVERDILKEMFPYEASTPTGISASCRRPIKGAAGRPLELSDFRMEESFSSKYVPKYVPLADVKSEKTKKGRSIPVWIKILLFVVVAVFLFLVYQAMETNQVNPFSNFLHVDPRKSN	–	binds	–
lamin B2 (endogenous, mouse ESC) (protein, UniProt P21619 1-596) MASLPPHAGPATPLSPTRLSRLQEKEELRELNDRLAHYIDRVRALELENDRLLLRISEKEEVTTREVSGIKTLYESELADARRVLDETARERARLQIEIGKVQAELEEARKSAKKREGELTVAQGRVKDLESLFHRSEAELATALSDKQGLETEVAELRAQLAKAEDGHAVAKKQLEKETLMRVDLENRCQSLQEELAFSKSVFEEEVRETRRRHERRLVEVDSSRQQEYDFKMAQALEDLRSQHDEQVRLYRVELEQTYQAKLDNAKLLSDQNDKAAHAAREELKEARMRVESLSYQLLGLQKQASAAENHIHELEEALAGERDKFRKMLDAKEQEMTEVRDAMQQQLAEYQELLDIKLALDMEISAYRKLLEGEEERLKLSPSPSSRITISRATSSSSSSSGVGMSVGQGRGKRRRLETEDTSGSPSRASRVSSGSRLAQQTVATGVVNIDEVDPEGRFVRLKNSSDKDQSLGNWRIKRQVLEGEDIAYKFTPKYVLRAGQTVTVWAAGAGATHSPPSTLVWKSQTNWGPGESFRTALVSADGEEVAVKAAKHSSVQGRENGEEEEEEEAEFGEEDLFHQQGDPRTTSRGCRLM	–	–	binding [5]: binds; binding [6]: binds
lamin B2 (endogenous, human fibroblasts) (protein, UniProt Q03252 1-620) MSPPSPGRRREQRRPRAAATMATPLPGRAGGPATPLSPTRLSRLQEKEELRELNDRLAHYIDRVRALELENDRLLLKISEKEEVTTREVSGIKALYESELADARRVLDETARERARLQIEIGKLRAELDEVNKSAKKREGELTVAQGRVKDLESLFHRSEVELAAALSDKRGLESDVAELRAQLAKAEDGHAVAKKQLEKETLMRVDLENRCQSLQEELDFRKSVFEEEVRETRRRHERRLVEVDSSRQQEYDFKMAQALEELRSQHDEQVRLYKLELEQTYQAKLDSAKLSSDQNDKAASAAREELKEARMRLESLSYQLSGLQKQASAAEDRIRELEEAMAGERDKFRKMLDAKEQEMTEMRDVMQQQLAEYQELLDVKLALDMEINAYRKLLEGEEERLKLSPSPSSRVTVSRATSSSSGSLSATGRLGRSKRKRLEVEEPLGSGPSVLGTGTGGSGGFHLAQQASASGSVSIEEIDLEGKFVQLKNNSDKDQSLGNWRIKRQVLEGEEIAYKFTPKYILRAGQMVTVWAAGAGVAHSPPSTLVWKGQSSWGTGESFRTVLVNADGEEVAMRTVKKSSVMRENENGEEEEEEAEFGEEDLFHQQGDPRTTSRGCYVM	binds	binds	–
